We go through 4 molecules from article PMC10163027, “Coordinated regulation of vegetative phase change by brassinosteroids and the age pathway in Arabidopsis” (Nature Communications, 2023).

Chains of the proteins cited; added tags and fusions are not shown.
UniProt Q9SK03: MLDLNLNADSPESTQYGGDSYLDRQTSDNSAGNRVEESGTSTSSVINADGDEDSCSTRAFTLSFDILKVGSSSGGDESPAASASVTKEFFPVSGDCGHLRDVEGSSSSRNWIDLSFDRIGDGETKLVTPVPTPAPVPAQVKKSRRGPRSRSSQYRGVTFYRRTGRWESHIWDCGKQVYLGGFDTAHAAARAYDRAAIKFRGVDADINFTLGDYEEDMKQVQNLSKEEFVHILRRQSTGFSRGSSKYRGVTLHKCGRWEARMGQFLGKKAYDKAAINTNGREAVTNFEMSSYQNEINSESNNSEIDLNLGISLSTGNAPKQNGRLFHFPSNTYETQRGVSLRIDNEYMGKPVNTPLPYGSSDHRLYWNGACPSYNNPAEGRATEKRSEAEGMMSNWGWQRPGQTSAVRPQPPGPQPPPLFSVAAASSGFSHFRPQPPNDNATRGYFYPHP

Where two headings read alike, the source gives them in different places. These are yes or no findings as the source states them, for the method shown. For some of these results: Binding seen in cells or lysates may run through a third protein. Some entries that bind do so weakly or less than the wild type. Sequences can lack the tags named with a protein.

The target of test [1] is T1, BIN2-cYFP (Arabidopsis) (UniProt Q39011).
T1 sequence: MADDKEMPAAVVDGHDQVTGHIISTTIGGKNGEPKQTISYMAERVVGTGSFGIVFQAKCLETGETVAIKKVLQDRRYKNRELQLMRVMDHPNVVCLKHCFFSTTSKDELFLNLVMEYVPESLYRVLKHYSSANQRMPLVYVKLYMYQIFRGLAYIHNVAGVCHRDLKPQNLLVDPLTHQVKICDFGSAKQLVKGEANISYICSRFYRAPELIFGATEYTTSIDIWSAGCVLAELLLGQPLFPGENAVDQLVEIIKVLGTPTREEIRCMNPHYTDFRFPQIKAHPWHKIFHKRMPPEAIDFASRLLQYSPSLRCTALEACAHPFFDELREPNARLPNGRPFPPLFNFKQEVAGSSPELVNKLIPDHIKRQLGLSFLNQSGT
The experiment in a line: split reporter; BiFC with nYFP and cYFP fusions co-transformed into WT Arabidopsis protoplasts (PEG-mediated), 12-16 h, confocal microscopy; YFP signal in nuclei.

In test [2] the target is T2, BRASSINOSTEROID …2 (BIN2), yeast two-hybrid fusion (Arabidopsis) (UniProt Q39011).
T2 sequence: T1 sequence
The test can be described thus: two-hybrid; GAL4 system, yeast strain AH109; co-transformants from DDO (SD/-Leu/-Trp) tested for growth on QDO (SD/-Leu/-Trp/-Ade/-His).

The target of test [3] is T2, BRASSINOSTEROID …2 (BIN2), yeast two-hybrid fusion (Arabidopsis). The test is described as above. The source holds these as a separate data set.
Test [4] addresses T1, BIN2-cYFP (Arabidopsis). The experiment in a line: split reporter; BiFC with nYFP and cYFP fusions co-transformed into WT Arabidopsis protoplasts (PEG-mediated), 12-16 h, confocal microscopy; YFP signal in nuclei. The source holds these as a separate data set.

As for TOE1-nYFP (from UniProt Q9SK03 1-449), the binding entry with BIN2-cYFP (Arabidopsis) [1] is given as “binds”.

As for “TARGET OF EAT1 (TOE1), yeast two-hybrid fusion (from UniProt Q9SK03 1-449)”, the binding entry in test [2] is “binds”.

B1: SQUAMOSA PROMOTER BINDING PROTEIN-LIKE 9 (SPL9), yeast two-hybrid fusion (protein, UniProt Q700W2 1-375)
chain: MEMGSNSGPGHGPGQAESGGSSTESSSFSGGLMFGQKIYFEDGGGGSGSSSSGGRSNRRVRGGGSGQSGQIPRCQVEGCGMDLTNAKGYYSRHRVCGVHSKTPKVTVAGIEQRFCQQCSRFHQLPEFDLEKRSCRRRLAGHNERRRKPQPASLSVLASRYGRIAPSLYENGDAGMNGSFLGNQEIGWPSSRTLDTRVMRRPVSSPSWQINPMNVFSQGSVGGGGTSFSSPEIMDTKLESYKGIGDSNCALSLLSNPHQPHDNNNNNNNNNNNNNNTWRASSGFGPMTVTMAQPPPAPSQHQYLNPPWVFKDNDNDMSPVLNLGRYTEPDNCQISSGTAMGEFELSDHHHQSRRQYMEDENTRAYDSSSHHTNWSL
For the molecule B1, the binding entry in test [3] is “binds”.

B2: SPL9-nYFP (protein, UniProt Q700W2 1-375)
chain: B1 chain
B2: in the test with BIN2-cYFP (Arabidopsis) [4], the binding entry is recorded as “binds”.
